# The whole screen tested about 320,000 compounds, of which about 22,000 (6.9%) were called active. Inconclusive results, whose numbers are uncertain, are shown with a selection of clear calls. Calls follow the shape of the dose curve; as a rule, active = well fitted inhibition curve with a large enough effect; inconclusive = small, poorly fitted or top-dose-only effect, or another doubt; inactive = no such curve, though single readings can be large or run the other way. Potencies beside an inconclusive call are fits to weak or partial responses and may not hold up.
# Assay: Primary qHTS for delayed death inhibitors of the malarial parasite plastid, 96 hour incubation
# Conditions: P. falciparum luciferase reporter growth; series mostly up to 28.7 µM
# How it was run: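 Plates of compound plus infected erythrocytes (2% hematocrit, 0.05% parasitemia final) incubate 96 hours, 37 C, 5% CO2. Detection reagent added; reduced luminescence from the parasites' luciferase reporter flags inhibition.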
# Potency is read from the fitted curve at half-maximal effect.
row,Compound,Potency
1,CCN(CC(=O)Nc1ccc(NC(C)=O)cc1)CC(=O)Nc1ccc(Cl)c(Cl)c1,inactive
2,CC1(C)Oc2ccc3ccc(=O)oc3c2/C(=C/NCCN/C=C2\C(=O)C(C)(C)Oc3ccc4ccc(=O)oc4c32)C1=O,"inconclusive: 0.208 µM [inhibitor, full curve, poor fit]"
3,Cc1nc2ccccc2c(=O)n1-c1ccccc1C(F)(F)F,"inconclusive: 2.33 µM [inhibitor, full curve]"
4,O=C(O)C1C2C=CC(C2)C1C(=O)NCc1ccccc1F (stereo not given),"inconclusive: 14.7 µM [inhibitor, single point]"
5,CCCCCn1c(CN2CCN(c3cccc(Cl)c3)CC2)nc2c1c(=O)[nH]c(=O)n2C,"inconclusive: 8.28 µM [inhibitor, partial curve, poor fit]"
6,CN1CCN(CC(O)COc2ccccc2)CC1 (stereo not given),"inconclusive: 6.57 µM [inhibitor, partial curve, poor fit]"
7,Cc1cc(O)c2c(C)c(CC(=O)N3CCN(C(=O)C4COc5ccccc5O4)CC3)c(=O)oc2c1 (stereo not given),"inconclusive: 18.5 µM [inhibitor, single point]"
8,CCOc1ccc(C(=O)N/N=C(\c2ccccc2)c2ccccn2)cc1,active: 11.7 µM
9,Cc1c(C(=O)NC2CCS(=O)(=O)C2)oc2ccccc12 (stereo not given),inactive
10,Cn1c(SCC(=O)N2CCCC2)nc2cccnc21,"inconclusive: 20.8 µM [inhibitor, single point]"
11,O=S(=O)(Cc1ccc(Cl)cc1)N1CCCC1,"inconclusive: 0.233 µM [inhibitor, full curve, poor fit]"
12,CCCCC(=O)Nc1nnn(CCC)n1,"inconclusive: 0.828 µM [inhibitor, partial curve, poor fit]"
13,COCCCn1c(SCC(=O)NC2CCCCC2)nnc1-c1ccncc1,active: 8.28 µM
14,O=C(Nc1cccc(-n2cnnn2)c1)c1ccoc1COc1ccc(Cl)cc1,"inconclusive: 18.5 µM [inhibitor, single point]"
15,CC(=O)Nc1cccc(C(=O)OC(C)C(=O)N2CCc3ccccc32)c1 (stereo not given),inactive
16,CC(C)(CO)NC(=O)CCCOc1ccc(Cl)cc1Cl,inactive
17,NC(=S)NS(=O)(=O)c1ccc(N)cc1,inactive
18,C=CCn1c(SCC(=O)N(CCC)C2CCS(=O)(=O)C2)nnc1-c1ccccc1OC (stereo not given),inactive
19,CCn1c2nc(SCCN3CCOCC3)nnc2c2cc(C)cc(C)c21,"inconclusive: 5.86 µM [inhibitor, partial curve, poor fit]"
20,Cc1cc(=O)[nH]c(SCc2cn3ccccc3n2)n1,inactive
21,COc1ccc(/C=C/C(=O)Nc2ccccc2C)cc1S(=O)(=O)N1CCOCC1,"inconclusive: 1.47 µM [inhibitor, partial curve, poor fit]"
22,CC(SC1=NCCN1S(=O)(=O)c1ccccc1)c1ccccc1 (stereo not given),active: 13.1 µM
23,CCCCC(CC)C(=O)Nc1ccc(S(=O)(=O)N2CCCC2)cc1 (stereo not given),"inconclusive: 7.38 µM [inhibitor, partial curve, poor fit]"
24,CCOc1c2ccc(C(=O)NCc3ccc(C(F)(F)F)cc3C(F)(F)F)cc2nn1C,"inconclusive: 18.5 µM [inhibitor, single point]"

row,Compound,Potency
1,CCCCCc1cc(=O)oc2c(C(CCN3CCN(c4ccccc4)CC3)c3ccc(N(C)C)cc3)c(OC)cc(OC)c12 (stereo not given),"inconclusive: 13.1 µM [inhibitor, single point]"
2,CC(=O)c1cccc(Nc2nc(N3CCOCC3)nc(N3CCOCC3)n2)c1,"inconclusive: 18.5 µM [inhibitor, single point]"
3,COc1ccc(-c2cn(-c3ccccc3)c3[n+]2CCS3)cc1,active: 0.104 µM
4,O=C(c1cc2ccccc2o1)N1CCN(S(=O)(=O)/C=C/c2ccccc2)CC1,"inconclusive: 9.28 µM [inhibitor, partial curve, poor fit]"
5,NC1=NC[C@H](Cc2ccc(O)cc2)N1CCCCC1CCCCC1,active: 2.08 µM
6,Cc1nc(-c2ccc(F)cc2)c(CC(=O)N(C)CC(=O)Nc2c(C)cccc2C)s1,inactive
7,CC(=O)c1cccc(NC(=O)C(C)OC(=O)c2ccc3ncsc3c2)c1 (stereo not given),"inconclusive: 10.4 µM [inhibitor, single point]"
8,COc1ccccc1-c1nc(-c2ccc(Br)o2)no1,"inconclusive: 18.5 µM [inhibitor, single point]"
9,O=c1c(Cc2c(F)cccc2Cl)c(O)ccn1CCc1ccccn1,inactive
10,CN1CCC(NC(=S)NC2CC2)CC1,inactive
11,CCCSc1ccc([C@H]2N[C@@](C)(C(=O)OC)[C@H]3C(=O)N(C)C(=O)[C@@H]23)cc1OC,inactive
12,Cc1nn(C)cc1/C=N/NC(=O)c1sc2ccccc2c1Cl,"inconclusive: 9.28 µM [inhibitor, partial curve]"
13,Cc1ccc(NC(=O)CN(C)C(=O)Cc2ccc(Cl)cc2Cl)cc1,"inconclusive: 13.1 µM [inhibitor, partial curve]"
14,COc1ccc2c(c1)CCc1c(C(=O)NCC(C)C)noc1-2,"inconclusive: 1.17 µM [inhibitor, partial curve, poor fit]"
15,C[C@@]12C(=O)Nc3ccccc3C(=O)N1[C@H]1c3cc(Br)ccc3OC[C@@H]1[C@@H]2c1ccccc1,"inconclusive: 18.5 µM [inhibitor, single point]"
16,Cc1cc(Nc2cccc(Cl)c2)n2ncnc2n1,active: 1.65 µM
17,NS(=O)(=O)c1ccc(CCNCc2cc(Cl)ccc2OCc2ccccc2)cc1,"inconclusive: 11.7 µM [inhibitor, single point]"
18,O=C(CCN1CCN(c2ccccc2)CC1)N/N=C/c1ccc(O)c(O)c1O,inactive
19,Cc1cc(OC(F)F)ccc1NC(=O)Nc1ccc2c(c1)OCO2,"inconclusive: 10.4 µM [inhibitor, single point]"
20,O=[N+]([O-])c1cc(C(F)(F)F)cc([N+](=O)[O-])c1N1CCN(S(=O)(=O)c2ccccc2)CC1,active: 14.7 µM
21,CC(C)CNC(=O)CN(c1ccccc1)S(=O)(=O)c1ccccc1[N+](=O)[O-],active: 5.86 µM
22,Cc1ccc2cc(C#N)c(N3CCCN(C(=S)NCCCN(C)C)CC3)nc2c1,"inconclusive: 18.5 µM [inhibitor, single point]"
23,O=C(NC1CCCCC1)C(c1cccs1)N(C(=O)Cc1c[nH]c2ccccc12)c1ccc(F)cc1 (stereo not given),"inconclusive: 2.33 µM [inhibitor, single point]"
24,C=CCN1CCc2cccc3c2[C@H]1Cc1ccc(O)c(O)c1-3,inactive

row,Compound,Potency
1,Cc1ccc2oc(C(=O)N3CCN(c4cccc(C)n4)CC3)c(C)c2c1,"inconclusive: 18.5 µM [inhibitor, single point]"
2,CCOc1ccc(NC(=O)C2C(C(=O)O)C3(Cl)C(Cl)=C(Cl)C2(Cl)C3(Cl)Cl)cc1 (stereo not given),"inconclusive: 13.1 µM [inhibitor, single point]"
3,Cc1cccc(NC(=O)CSc2nc(-c3ccco3)nc3cc(=O)[nH]n23)c1,inactive
4,CCOC(=O)C1(Cc2cccc(F)c2)CCN(Cc2cnc(C)s2)CC1,active: 2.33 µM
5,Fc1ccc(-n2nnc(-c3ccccc3Br)n2)cc1,"inconclusive: 18.5 µM [inhibitor, single point]"
6,CC(=O)c1ccc(NC(=O)C2C3C=CC(C3=C(c3ccccc3)c3ccccc3)C2C(=O)O)cc1 (stereo not given),"inconclusive: 8.28 µM [inhibitor, partial curve, poor fit]"
7,Oc1ccccc1-c1cc(-c2cccc(F)c2)n[nH]1,"inconclusive: 2.08 µM [inhibitor, full curve]"
8,COc1ccc(CCNC(=O)COc2ccc(-c3ccc(C)cc3)cc2)cc1OC,"inconclusive: 9.28 µM [inhibitor, single point]"
9,O=C(Nc1nc2ccccc2n1CCN1CCCC1)c1ccc(Cl)cc1,"inconclusive: 6.57 µM [inhibitor, partial curve, poor fit]"
10,O=C(CCS(=O)(=O)c1cccs1)Nc1ccc(C(=O)NC2CCCC2)cc1,"inconclusive: 0.104 µM [inhibitor, partial curve, poor fit]"
11,CCOc1ccc(NC(=O)c2ccncc2)cc1,"inconclusive: 4.65 µM [inhibitor, partial curve, poor fit]"
12,COc1ccc(C(C)=O)cc1CN(c1ccccc1OC)S(=O)(=O)c1cccs1,"inconclusive: 13.1 µM [inhibitor, partial curve]"
13,CCn1c(SCC(=O)O)nnc1-c1ccccc1OC,inactive
14,COc1ccc(C(CNC(=O)Nc2ccc(Cl)cc2)N2CCN(C)CC2)cc1 (stereo not given),"inconclusive: 18.5 µM [inhibitor, single point]"
15,CCSc1nnc(NC(=O)c2ccc(F)c(S(=O)(=O)N3CCOCC3)c2)s1,"inconclusive: 9.28 µM [inhibitor, single point]"
16,CCN1CCN(c2nc(NCCO)c3ccccc3n2)CC1,"inconclusive: 18.5 µM [inhibitor, single point]"
17,Cc1ccccc1C(=O)N1CC(=O)Nc2ccc(F)cc2C1c1ccc(F)cc1 (stereo not given),"inconclusive: 0.0329 µM [inhibitor, full curve, poor fit]"
18,CN(Cc1cccc(F)c1)C(=O)C(c1ccccc1)c1ccccc1,"inconclusive: 11.7 µM [inhibitor, single point]"
19,Cc1nn(C)c(C(=O)NNC(=O)Nc2cccc(C(F)(F)F)c2)c1Cl,inactive
20,CNc1snc(C)c1C(=O)OCC(=O)Nc1ccc(C)cc1F,inactive
21,O=C(NCCc1ccccc1F)C1CCC(=O)N(Cc2ccc(Cl)cc2)C1 (stereo not given),inactive
22,COC(=O)[C@H](Cc1ccccc1)NC(=O)c1ccc2ccccc2n1,inactive

# Look-ups from the entries so far:
# Under Potency, `Cc1cccc(NC(=O)CSc2nc(-c3ccco3)nc3cc(=O)[nH]n23)c1` has the entry inactive
# Under Potency, `CN(Cc1cccc(F)c1)C(=O)C(c1ccccc1)c1ccccc1` has the entry inconclusive: 11.7 µM [inhibitor, single point]
# Under Potency, `COc1ccc(-c2cn(-c3ccccc3)c3[n+]2CCS3)cc1` has the entry active: 0.104 µM
# Under Potency, `CCOc1ccc(C(=O)N/N=C(\c2ccccc2)c2ccccn2)cc1` has the entry active: 11.7 µM
# Under Potency, `O=[N+]([O-])c1cc(C(F)(F)F)cc([N+](=O)[O-])c1N1CCN(S(=O)(=O)c2ccccc2)CC1` has the entry active: 14.7 µM

# — PubChem BioAssay AID504834 (National Center for Advancing Translational Sciences (NCATS), 2011)
